The values that follow come from paper PMC1526748.

Amino acid sequences for entries named in this document (tags omitted). A change or cut given only in a name is not applied to a line headed by its entry.
UniProt Q02078: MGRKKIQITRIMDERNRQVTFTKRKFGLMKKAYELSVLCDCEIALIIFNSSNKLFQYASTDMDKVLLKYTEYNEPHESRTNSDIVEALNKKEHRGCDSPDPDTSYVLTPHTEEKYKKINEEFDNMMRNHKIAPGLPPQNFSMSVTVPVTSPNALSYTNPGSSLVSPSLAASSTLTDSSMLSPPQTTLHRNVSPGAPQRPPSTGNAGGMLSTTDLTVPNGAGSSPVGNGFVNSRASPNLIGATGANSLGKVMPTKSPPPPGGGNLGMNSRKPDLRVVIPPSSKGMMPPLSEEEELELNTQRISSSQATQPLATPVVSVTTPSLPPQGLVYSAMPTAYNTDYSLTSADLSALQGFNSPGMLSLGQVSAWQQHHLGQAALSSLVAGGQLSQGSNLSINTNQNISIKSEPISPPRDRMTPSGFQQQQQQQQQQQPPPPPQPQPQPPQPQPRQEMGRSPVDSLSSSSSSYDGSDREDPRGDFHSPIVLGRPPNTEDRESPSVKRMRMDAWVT
UniProt Q06413, whole entry: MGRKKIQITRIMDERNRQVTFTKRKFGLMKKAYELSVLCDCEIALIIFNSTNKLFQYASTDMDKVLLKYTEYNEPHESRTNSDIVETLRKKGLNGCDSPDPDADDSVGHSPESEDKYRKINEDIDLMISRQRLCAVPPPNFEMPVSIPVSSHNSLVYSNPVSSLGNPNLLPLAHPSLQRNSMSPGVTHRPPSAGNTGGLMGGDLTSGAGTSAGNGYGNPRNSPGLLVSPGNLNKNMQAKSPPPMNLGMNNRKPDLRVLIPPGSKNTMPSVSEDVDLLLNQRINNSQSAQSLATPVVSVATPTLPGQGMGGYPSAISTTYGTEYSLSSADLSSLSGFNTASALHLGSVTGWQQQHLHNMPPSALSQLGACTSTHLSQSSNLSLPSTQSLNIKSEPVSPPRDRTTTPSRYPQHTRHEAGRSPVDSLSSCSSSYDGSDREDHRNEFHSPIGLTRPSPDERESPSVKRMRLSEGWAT
UniProt P19793: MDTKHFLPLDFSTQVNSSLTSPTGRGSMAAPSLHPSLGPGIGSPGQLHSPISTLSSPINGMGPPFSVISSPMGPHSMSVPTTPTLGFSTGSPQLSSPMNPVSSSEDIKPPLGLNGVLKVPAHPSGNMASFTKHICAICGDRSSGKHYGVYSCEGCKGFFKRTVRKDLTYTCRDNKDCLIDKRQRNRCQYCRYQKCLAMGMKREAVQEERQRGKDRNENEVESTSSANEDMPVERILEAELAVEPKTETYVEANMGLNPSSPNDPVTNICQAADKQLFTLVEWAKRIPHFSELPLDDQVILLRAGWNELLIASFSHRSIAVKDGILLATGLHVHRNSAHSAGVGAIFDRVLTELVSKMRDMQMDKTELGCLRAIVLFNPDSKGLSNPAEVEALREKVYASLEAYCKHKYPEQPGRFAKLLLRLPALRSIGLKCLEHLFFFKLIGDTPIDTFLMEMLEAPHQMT

The target of data set [1] is MEF2A (Homo sapiens (TC-7 clone of Caco-2)) (UniProt Q02078). The data set can be described thus: EMSA with antibody (complex diminished). The following applies: anti-MEF2A; 5-15 ug TC-7 nuclear extract, 25 mM HEPES (pH not stated), 100 mM KCl, 0.1% NP-40, 1 mM DTT, 5% glycerol, 1 ug poly(dI-dC), 20 fmol probe in 20 ul; protein in an extract; label: 5'-32P. In general terms: Mobility shift assays separate free from complexed probe on a gel.

Data set [2] deals with MEF2C (Homo sapiens (TC-7 clone of Caco-2)) (UniProt Q06413). The experiment in a line: EMSA supershift. As to conditions: anti-MEF2C; 5-15 ug TC-7 nuclear extract, 25 mM HEPES (pH not stated), 100 mM KCl, 0.1% NP-40, 1 mM DTT, 5% glycerol, 1 ug poly(dI-dC), 20 fmol probe in 20 ul; protein in an extract; label: 5'-32P.
In data set [3] the target is T1, MEF2D (Homo sapiens (TC-7 clone of Caco-2)) (UniProt Q14814).
T1 sequence (looked up, limits assumed): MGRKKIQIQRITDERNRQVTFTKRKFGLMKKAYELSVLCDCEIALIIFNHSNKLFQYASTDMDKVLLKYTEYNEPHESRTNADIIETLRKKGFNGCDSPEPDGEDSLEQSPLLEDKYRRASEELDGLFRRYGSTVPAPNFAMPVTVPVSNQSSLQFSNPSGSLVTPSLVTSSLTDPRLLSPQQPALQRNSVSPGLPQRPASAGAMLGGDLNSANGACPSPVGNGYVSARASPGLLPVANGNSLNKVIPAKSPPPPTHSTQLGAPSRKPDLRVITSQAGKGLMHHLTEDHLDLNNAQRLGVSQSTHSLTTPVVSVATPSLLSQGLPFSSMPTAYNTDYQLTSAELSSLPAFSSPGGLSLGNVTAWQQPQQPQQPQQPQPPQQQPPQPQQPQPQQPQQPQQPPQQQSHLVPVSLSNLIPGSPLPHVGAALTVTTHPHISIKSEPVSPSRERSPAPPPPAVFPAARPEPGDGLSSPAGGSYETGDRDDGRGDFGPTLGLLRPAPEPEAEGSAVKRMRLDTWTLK
The experiment in a line: EMSA supershift. The following applies: anti-MEF2D; 5-15 ug TC-7 nuclear extract, 25 mM HEPES (pH not stated), 100 mM KCl, 0.1% NP-40, 1 mM DTT, 5% glycerol, 1 ug poly(dI-dC), 20 fmol probe in 20 ul; protein in an extract; label: 5'-32P.

Data set [4] has as its target MEF2C (Homo sapiens (TC-7 clone of Caco-2)) (UniProt Q06413). The experiment in a line: EMSA. As to conditions: mutated probe, complex abolished; 5-15 ug TC-7 nuclear extract, 25 mM HEPES (pH not stated), 100 mM KCl, 0.1% NP-40, 1 mM DTT, 5% glycerol, 1 ug poly(dI-dC), 20 fmol probe in 20 ul; protein in an extract; label: 5'-32P.
In data set [5] the target is PPARgamma (Homo sapiens (TC-7 clone of Caco-2)) (UniProt P37231). The data set can be described thus: EMSA with antibody (complex diminished). The following applies: anti-PPARgamma; 5-15 ug TC-7 nuclear extract, 25 mM HEPES (pH not stated), 100 mM KCl, 0.1% NP-40, 1 mM DTT, 5% glycerol, 1 ug poly(dI-dC), 20 fmol probe in 20 ul; protein in an extract; label: 5'-32P.
In data set [6] the target is RXRalpha (Homo sapiens (TC-7 clone of Caco-2)) (UniProt P19793). The experiment in a line: EMSA supershift. The following applies: anti-RXRalpha, weak supershift, complex diminished; 5-15 ug TC-7 nuclear extract, 25 mM HEPES (pH not stated), 100 mM KCl, 0.1% NP-40, 1 mM DTT, 5% glycerol, 1 ug poly(dI-dC), 20 fmol probe in 20 ul; protein in an extract; label: 5'-32P.

Construct, isoform or probe ends are uncertain for at least one entry. Where cells or extracts were used, other partners may take part. For part of these data: Negatives hold for the conditions tested. For part of these data: At least one verdict rests on a figure or table, not on a statement of the authors. For part of these data: Protein sequences can lack the tags named with them.

Take “CTCTCTGCTTATTTAGAACCTAGTC (double strand) [BCMO1 MEF2 wild type]”: the binding result in data set [1], in data set [2] and in data set [3] was “binds” each time.

With “CTCTCTGCTTGTTTACAACCTAGTC (double strand) [BCMO1 MEF2 mutated]”, the binding result in data set [4] is “no binding”.

As to “GCTTGGAAATTAACCTTTAACCAAACAT (double strand) [BCMO1 PPRE wild type]”, the binding result in data set [5] and in data set [6] was “binds” throughout.
